Test results from the supplement of paper PMC10849652.
The list shows a part of the results.

Chains of the proteins cited; added tags and fusions are not shown. Lines headed by an entry give the natural chain unless they say otherwise; changes in a name come on top.
UniProt Q6ZNA5: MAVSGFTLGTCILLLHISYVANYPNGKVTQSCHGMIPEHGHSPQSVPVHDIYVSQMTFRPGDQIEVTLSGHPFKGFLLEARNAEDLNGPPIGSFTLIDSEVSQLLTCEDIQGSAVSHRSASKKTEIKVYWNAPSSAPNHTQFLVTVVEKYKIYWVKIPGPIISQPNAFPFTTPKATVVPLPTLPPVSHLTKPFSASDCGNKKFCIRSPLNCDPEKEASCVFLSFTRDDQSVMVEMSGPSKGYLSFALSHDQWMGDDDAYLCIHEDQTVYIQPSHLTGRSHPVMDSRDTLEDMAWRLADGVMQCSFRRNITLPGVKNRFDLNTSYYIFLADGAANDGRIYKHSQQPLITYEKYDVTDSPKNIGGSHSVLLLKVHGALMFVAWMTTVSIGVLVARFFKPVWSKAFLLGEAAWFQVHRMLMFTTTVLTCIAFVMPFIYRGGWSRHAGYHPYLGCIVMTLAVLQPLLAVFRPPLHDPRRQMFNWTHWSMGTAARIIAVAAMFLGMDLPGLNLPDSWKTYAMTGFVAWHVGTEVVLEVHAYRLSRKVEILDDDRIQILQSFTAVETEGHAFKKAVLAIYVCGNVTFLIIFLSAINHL
UniProt Q9UP38, whole entry, looked up: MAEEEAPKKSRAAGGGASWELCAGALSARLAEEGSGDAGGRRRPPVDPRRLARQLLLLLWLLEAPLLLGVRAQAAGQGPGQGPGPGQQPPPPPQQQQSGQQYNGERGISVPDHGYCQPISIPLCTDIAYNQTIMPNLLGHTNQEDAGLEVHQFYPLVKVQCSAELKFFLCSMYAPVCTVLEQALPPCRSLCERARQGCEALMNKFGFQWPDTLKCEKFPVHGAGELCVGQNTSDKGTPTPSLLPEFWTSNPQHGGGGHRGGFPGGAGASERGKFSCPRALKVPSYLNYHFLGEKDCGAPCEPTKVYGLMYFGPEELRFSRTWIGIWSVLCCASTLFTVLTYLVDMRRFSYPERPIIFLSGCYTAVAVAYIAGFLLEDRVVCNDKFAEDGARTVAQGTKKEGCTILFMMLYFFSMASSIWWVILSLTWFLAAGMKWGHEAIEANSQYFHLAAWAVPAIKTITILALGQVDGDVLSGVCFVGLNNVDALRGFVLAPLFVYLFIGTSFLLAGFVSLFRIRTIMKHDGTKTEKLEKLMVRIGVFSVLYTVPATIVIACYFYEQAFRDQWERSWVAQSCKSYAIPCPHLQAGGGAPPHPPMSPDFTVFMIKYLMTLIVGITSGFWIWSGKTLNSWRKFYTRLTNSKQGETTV
UniProt A2VDF0: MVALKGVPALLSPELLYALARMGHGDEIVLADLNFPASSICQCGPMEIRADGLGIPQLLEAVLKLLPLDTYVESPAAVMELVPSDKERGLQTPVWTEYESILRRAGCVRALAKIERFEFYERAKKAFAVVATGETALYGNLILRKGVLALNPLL
UniProt Q06547, whole entry, looked up: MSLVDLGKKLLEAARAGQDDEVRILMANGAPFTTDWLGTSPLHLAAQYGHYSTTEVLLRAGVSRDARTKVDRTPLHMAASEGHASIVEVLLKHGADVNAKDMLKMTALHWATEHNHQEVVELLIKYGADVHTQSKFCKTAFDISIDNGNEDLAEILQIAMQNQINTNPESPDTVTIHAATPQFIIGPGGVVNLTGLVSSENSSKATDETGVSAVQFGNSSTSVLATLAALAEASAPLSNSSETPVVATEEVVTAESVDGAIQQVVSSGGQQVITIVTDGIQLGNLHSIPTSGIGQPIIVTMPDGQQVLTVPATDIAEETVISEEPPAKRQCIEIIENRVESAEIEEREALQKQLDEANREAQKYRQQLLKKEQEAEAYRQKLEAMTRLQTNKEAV
UniProt Q14393: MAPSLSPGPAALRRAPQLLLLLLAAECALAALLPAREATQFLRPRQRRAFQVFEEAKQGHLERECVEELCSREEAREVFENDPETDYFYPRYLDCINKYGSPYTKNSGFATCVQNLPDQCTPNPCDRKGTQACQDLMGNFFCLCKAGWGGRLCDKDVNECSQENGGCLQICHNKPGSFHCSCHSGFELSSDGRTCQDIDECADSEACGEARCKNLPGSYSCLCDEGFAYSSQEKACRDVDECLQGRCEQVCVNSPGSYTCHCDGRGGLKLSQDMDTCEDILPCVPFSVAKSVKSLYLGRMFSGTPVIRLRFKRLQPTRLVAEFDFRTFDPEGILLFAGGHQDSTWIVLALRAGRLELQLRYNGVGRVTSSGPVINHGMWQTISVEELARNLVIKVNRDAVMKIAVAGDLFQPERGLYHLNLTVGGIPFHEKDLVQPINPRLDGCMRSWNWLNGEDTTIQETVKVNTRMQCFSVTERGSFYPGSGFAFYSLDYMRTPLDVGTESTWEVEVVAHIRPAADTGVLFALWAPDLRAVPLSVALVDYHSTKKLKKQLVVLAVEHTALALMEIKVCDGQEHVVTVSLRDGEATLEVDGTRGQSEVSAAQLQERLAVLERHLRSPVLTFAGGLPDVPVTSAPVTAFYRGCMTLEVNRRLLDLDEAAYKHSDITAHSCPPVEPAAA
UniProt Q9NXN4: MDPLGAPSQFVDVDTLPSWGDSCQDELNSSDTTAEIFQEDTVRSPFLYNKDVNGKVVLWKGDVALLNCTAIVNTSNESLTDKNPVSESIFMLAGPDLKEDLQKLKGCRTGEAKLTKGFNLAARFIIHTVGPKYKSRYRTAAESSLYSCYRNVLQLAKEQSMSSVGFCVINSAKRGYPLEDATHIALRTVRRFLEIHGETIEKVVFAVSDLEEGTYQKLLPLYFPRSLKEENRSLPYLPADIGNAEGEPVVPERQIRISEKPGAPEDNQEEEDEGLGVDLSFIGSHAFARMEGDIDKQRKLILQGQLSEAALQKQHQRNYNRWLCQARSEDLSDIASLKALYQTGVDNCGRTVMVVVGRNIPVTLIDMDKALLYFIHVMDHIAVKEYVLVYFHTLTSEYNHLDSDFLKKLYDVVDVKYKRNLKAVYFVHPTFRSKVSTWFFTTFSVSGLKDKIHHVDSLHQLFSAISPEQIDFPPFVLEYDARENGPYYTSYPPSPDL
UniProt Q6ZNW5: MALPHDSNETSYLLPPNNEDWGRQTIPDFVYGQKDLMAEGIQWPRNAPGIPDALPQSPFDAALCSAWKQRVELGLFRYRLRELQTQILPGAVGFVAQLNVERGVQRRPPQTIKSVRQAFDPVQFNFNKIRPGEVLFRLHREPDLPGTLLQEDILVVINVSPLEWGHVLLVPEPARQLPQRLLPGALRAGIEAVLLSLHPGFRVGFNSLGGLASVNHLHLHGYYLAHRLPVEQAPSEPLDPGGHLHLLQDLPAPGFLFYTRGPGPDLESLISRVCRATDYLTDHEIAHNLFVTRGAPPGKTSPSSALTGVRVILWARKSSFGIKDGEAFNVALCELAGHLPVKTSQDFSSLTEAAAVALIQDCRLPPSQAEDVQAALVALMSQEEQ
UniProt Q9NWZ8: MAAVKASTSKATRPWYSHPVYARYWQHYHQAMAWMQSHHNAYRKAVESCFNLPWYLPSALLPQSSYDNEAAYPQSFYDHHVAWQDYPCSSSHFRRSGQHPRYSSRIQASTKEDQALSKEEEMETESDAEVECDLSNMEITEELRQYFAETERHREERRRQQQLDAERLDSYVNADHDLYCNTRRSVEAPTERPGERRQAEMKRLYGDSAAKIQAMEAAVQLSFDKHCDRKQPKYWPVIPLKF
UniProt Q9BZ67: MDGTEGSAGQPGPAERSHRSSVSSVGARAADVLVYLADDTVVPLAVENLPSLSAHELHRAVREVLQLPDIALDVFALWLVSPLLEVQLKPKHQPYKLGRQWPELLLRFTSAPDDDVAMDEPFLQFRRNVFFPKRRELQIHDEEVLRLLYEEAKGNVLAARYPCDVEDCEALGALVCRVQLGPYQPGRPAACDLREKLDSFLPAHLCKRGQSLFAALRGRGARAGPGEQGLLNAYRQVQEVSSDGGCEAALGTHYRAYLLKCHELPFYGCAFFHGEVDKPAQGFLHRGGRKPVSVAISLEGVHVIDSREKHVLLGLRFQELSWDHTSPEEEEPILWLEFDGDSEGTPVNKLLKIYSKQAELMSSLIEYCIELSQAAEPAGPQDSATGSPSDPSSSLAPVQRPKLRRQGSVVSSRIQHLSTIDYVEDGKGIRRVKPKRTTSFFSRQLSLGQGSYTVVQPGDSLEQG
UniProt Q9UPW0: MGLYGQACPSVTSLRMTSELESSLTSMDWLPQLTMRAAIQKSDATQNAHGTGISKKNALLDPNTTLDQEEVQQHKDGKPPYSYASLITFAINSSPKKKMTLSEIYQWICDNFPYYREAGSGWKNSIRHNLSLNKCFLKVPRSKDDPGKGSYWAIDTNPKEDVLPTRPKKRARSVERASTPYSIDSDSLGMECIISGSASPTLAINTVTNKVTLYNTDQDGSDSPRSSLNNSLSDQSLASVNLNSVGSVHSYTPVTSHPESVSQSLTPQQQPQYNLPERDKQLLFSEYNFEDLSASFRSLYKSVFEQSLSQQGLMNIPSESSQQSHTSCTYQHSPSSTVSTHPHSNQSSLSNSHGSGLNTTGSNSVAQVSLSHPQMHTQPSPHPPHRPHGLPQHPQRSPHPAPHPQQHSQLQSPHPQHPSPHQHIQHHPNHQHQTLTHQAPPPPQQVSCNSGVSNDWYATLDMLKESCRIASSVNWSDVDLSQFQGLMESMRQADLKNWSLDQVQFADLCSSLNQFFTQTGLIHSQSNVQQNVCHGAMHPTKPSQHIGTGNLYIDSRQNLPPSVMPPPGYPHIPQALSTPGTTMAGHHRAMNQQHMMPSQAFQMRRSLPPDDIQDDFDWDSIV
UniProt Q9H840: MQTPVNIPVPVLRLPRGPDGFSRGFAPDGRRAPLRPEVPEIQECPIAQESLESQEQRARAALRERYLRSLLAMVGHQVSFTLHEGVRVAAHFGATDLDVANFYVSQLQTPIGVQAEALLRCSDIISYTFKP
UniProt Q5JV73, whole entry, looked up: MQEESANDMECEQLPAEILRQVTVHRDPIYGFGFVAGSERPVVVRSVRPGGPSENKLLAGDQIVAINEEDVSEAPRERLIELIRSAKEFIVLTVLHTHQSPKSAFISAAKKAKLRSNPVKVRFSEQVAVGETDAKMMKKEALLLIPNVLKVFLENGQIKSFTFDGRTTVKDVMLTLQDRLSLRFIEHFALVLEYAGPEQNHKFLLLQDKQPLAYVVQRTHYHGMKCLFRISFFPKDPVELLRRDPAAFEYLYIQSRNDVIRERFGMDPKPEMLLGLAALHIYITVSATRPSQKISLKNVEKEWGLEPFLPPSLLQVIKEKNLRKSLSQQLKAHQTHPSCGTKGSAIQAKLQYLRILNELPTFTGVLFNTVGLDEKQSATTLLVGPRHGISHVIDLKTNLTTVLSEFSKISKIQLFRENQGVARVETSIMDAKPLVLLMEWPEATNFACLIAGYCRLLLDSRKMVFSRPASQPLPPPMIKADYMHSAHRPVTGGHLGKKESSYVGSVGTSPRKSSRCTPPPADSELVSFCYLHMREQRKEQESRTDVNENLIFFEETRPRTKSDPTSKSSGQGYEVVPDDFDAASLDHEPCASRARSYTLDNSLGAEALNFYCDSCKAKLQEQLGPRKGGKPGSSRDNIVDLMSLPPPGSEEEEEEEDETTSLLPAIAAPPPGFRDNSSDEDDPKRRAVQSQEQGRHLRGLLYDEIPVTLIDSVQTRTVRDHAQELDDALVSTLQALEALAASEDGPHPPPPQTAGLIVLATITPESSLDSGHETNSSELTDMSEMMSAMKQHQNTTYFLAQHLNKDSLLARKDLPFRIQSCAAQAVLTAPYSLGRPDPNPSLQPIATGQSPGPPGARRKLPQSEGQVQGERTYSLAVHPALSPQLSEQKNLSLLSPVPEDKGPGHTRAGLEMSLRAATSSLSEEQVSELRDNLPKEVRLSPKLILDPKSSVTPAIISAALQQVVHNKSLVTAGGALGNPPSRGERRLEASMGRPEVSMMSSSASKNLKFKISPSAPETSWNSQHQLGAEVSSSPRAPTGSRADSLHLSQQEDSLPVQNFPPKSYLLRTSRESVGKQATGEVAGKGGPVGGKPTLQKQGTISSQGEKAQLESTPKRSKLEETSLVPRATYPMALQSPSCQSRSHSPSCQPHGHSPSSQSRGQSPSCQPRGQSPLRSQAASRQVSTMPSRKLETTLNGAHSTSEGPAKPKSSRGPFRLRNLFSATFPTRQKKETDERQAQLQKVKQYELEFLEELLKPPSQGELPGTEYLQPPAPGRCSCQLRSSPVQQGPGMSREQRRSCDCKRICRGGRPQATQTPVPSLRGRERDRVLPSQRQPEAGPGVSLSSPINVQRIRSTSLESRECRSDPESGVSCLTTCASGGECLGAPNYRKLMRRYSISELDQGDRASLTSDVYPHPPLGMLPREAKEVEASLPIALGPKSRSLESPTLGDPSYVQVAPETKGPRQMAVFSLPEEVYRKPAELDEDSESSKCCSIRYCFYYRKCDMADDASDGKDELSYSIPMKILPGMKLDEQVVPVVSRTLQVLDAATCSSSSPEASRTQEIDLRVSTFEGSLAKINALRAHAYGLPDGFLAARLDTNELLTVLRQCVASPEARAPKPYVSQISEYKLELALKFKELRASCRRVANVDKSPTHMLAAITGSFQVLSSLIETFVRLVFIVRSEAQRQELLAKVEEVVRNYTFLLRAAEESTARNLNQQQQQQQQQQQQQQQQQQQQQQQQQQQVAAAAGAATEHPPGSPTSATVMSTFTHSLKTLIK

What was measured:
Experiment in all cases: log2 fold change, soluble protein after heating vs DMSO (PISA); higher = thermal stabilisation; K562 cells, 10 uM, 30 min; active = over 0.2 and 3.5 SD of the protein, either way, in both replicates (recomputed)
[1] = compound: NC(=O)Nc1cc(-c2cccc(F)c2)sc1C(=O)N[C@H]1CCCNC1
How it was run: (§1)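 Quantification of soluble protein used TMTpro 16plex LC-MS/MS, with channel sums equalised. Samples were the supernatant after 21,000xg for 90 min of pooled aliquots from K562 cells (2×10^6 cells/mL) treated with 10 μM compound for 30 min, heated for 3 min over 48°C-58°C, and extracted in PBS with 0.5% NP-40 at 4°C. Values, from duplicates, describe thermal stability against control samples on a log2 fold-change scale.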

[2] = compound: NC(=O)c1cnc(N[C@@H]2CCCC[C@@H]2N)nc1Nc1cccc(-n2nccn2)c1
How it was run: as §1

[3] = compound: NC1(c2ccc(-c3nc4ccn5c(=O)[nH]nc5c4cc3-c3ccccc3)cc2)CCC1
How it was run: as §1

[4] = compound: NCC(=O)Nc1ccc(-n2nc(C(F)(F)F)cc2-c2ccc3c(ccc4ccccc43)c2)cc1
How it was run: as §1

[5] = compound: Nc1ccccc1NC(=O)c1ccc(CNC(=O)OCc2cccnc2)cc1 [entinostat]
How it was run: as §1

[6] = compound: O=C(CCCCCCC(=O)Nc1ccccc1)NO [vorinostat]
How it was run: as §1

[7] = compound: O=C(CCCCCCNC(=O)c1cnc(N(c2ccccc2)c2ccccc2Cl)nc1)NO [citarinostat]
How it was run: as §1

[8] = compound: O=C(O)c1ccc2c(c1)nc(Nc1cccc(Cl)c1)c1ccncc12 [silmitasertib]
How it was run: as §1

[9] = compound: O=C1NC(=O)C(c2cnc3ccccn23)=C1c1cn2c3c(cc(F)cc13)CN(C(=O)N1CCCCC1)CC2
How it was run: as §1

[10] = compound: c1cc(OCCN2CCCCC2)cc(-c2n[nH]c3ccc(-c4nnc[nH]4)cc23)c1
How it was run: as §1

[11] = compound: c1cn2cc(-c3ccc4cn[nH]c4c3)nc(Nc3ccc(N4CCOCC4)cc3)c2n1 [entospletinib]
How it was run: as §1

Measured: log2 fold change

FRRS1 (UniProt Q6ZNA5)
inactive: [1] -0.008 | [2] -0.03 | [3] 0.004 | [4] 0.015 | [5] 0.008 | [6] 0.028 | [7] 0.047 | [8] -0.017 | [9] 0.057 | [10] -0.12 | [11] -0.052

GALK2 (UniProt Q01415)
inactive: [1] -0.038 | [2] -0.022 | [3] -0.028 | [4] -0.034 | [5] 0.003 | [6] -0.043 | [7] 0.019 | [8] 0.005 | [9] -0.065 | [10] -0.055 | [11] -0.044

GANAB isoform 2 (UniProt Q14697)
inactive: [1] 0.006 | [2] 0.067 | [3] -0.04 | [4] 0.069 | [5] 0.02 | [6] -0.024 | [7] 0.002 | [8] 0 | [9] 0.056 | [10] -0.069 | [11] -0.003

GGA2 (UniProt Q9UJY4)
inactive: [1] 0.02 | [2] -0.02 | [3] -0.208 | [4] 0.01 | [5] 0.032 | [7] 0.042 | [8] 0.033 | [9] 0.152 | [10] -0.034

GDAP1 (UniProt Q8TB36)
inactive: [1] -0.004 | [2] -0.13 | [3] 0.01 | [4] 0.002 | [5] 0.008 | [6] -0.027 | [7] 0.031 | [8] -0.037 | [9] -0.109 | [10] 0.008 | [11] -0.191

GAR1 (UniProt Q9NY12)
inactive: [1] 0.095 | [2] 0.048 | [3] 0.221 | [4] 0.068 | [5] -0.004 | [6] 0.004 | [7] -0.051 | [8] 0.099 | [9] 0.157 | [10] -0.15 | [11] 0.083

FUT1 (UniProt P19526)
inactive: [1] -0.068 | [5] -0.095 | [9] 0.055

GAB1 isoform 2 (UniProt Q13480)
inactive: [1] 0.05 | [2] -0.161 | [3] -0.185 | [4] 0.021 | [5] -0.025 | [6] 0.009 | [7] 0.073 | [8] -0.068 | [9] 0.089 | [10] -0.121 | [11] 0.085

FZD1 (UniProt Q9UP38)
inactive: [1] -0.195 | [4] 0.111 | [5] -0.125 | [9] -0.222

GBA2 (UniProt Q9HCG7)
inactive: [1] -0.008 | [2] -0.006 | [3] -0.108 | [4] -0.129 | [5] -0.023 | [7] -0.332 | [8] 0.124 | [9] -0.027 | [10] -0.211

FUOM (UniProt A2VDF0)
inactive: [1] -0.015 | [3] 0.159 | [4] 0.057 | [5] -0.11 | [7] 0.114 | [8] -0.215 | [10] -0.086 | [11] 0.206

FTSJ1 isoform 2 (UniProt Q9UET6)
inactive: [1] -0.167 | [5] 0.192

GALNT10 (UniProt Q86SR1)
inactive: [1] 0.057 | [2] -0.058 | [3] -0.111 | [5] -0.021 | [6] -0.106 | [8] -0.034 | [9] 0.012

GABPB1 (UniProt Q06547)
inactive: [1] -0.042 | [4] -0.13 | [5] 0.116

GATA2 (UniProt P23769)
inactive: [1] 0.047 | [2] 0.047 | [3] 0.016 | [4] 0.239 | [5] -0.129 | [6] 0.055 | [7] -0.203 | [8] 0.073 | [10] -0.081 | [11] 0.139

GAS6 isoform 1 (UniProt Q14393)
inactive: [1] -0.122 | [5] 0.006 | [6] 0.012 | [7] 0.038 | [9] 0.023 | [10] -0.085 | [11] 0.013

GDAP2 (UniProt Q9NXN4)
inactive: [1] -0.004 | [2] 0.53 | [3] 0.04 | [5] -0.264 | [7] 0.083 | [8] 0.138 | [9] 0.104 | [10] -0.228 | [11] -0.394

FPGS (UniProt Q05932)
inactive: [1] 0.077 | [3] -0.127 | [4] -0.093 | [5] 0.042 | [6] -0.001 | [8] -0.139 | [9] 0.347

GAPDH isoform 2 (UniProt P04406)
inactive: [3] -0.189 | [8] 0.071

GGACT (UniProt Q9BVM4)
inactive: [3] -0.159 | [7] -0.178 | [8] -0.024 | [10] -0.103 | [11] 0.149

GDPD5 (UniProt Q8WTR4)
inactive: [7] -0.05 | [9] 0.021 | [10] 0.116 | [11] 0.006

GDPGP1 (UniProt Q6ZNW5)
inactive: [2] -0.115 | [3] -0.091 | [8] -0.027

GEMIN8 (UniProt Q9NWZ8)
inactive: [2] 0.01 | [4] 0.054 | [7] 0.174 | [9] 0.223 | [10] -0.354 | [11] -0.067

G6PC3 (UniProt Q9BUM1)
inactive: [3] -0.019 | [4] -0.229 | [7] 0.024 | [8] 0.162 | [10] -0.182 | [11] 0.033

GCFC2 isoform 3 (UniProt P16383)
inactive: [4] -0.03

FUT10 isoform 2 (UniProt Q6P4F1)
inactive: [6] 0.083 | [9] 0.158

GABPB1 isoform 3 (UniProt Q06547)
inactive: [3] -0.382 | [4] -0.176 | [6] 0.035 | [8] -0.06

2 records drawn at random from the list so far, as already listed:
FZD1 (UniProt Q9UP38)
inactive: [1] -0.195 | [4] 0.111 | [5] -0.125 | [9] -0.222

GEMIN8 (UniProt Q9NWZ8)
inactive: [2] 0.01 | [4] 0.054 | [7] 0.174 | [9] 0.223 | [10] -0.354 | [11] -0.067

Remaining list, next part:

GDPD3 (UniProt Q7L5L3)
inactive: [2] -0.203 | [4] 0.073 | [6] -0.034 | [9] -0.199

GFAP isoform 2 (UniProt P14136)
inactive: [3] -0.099 | [6] 0.389 | [7] -0.113 | [8] -0.123 | [10] 0.219 | [11] 0

FRMD8 (UniProt Q9BZ67)
inactive: [2] -0.015 | [7] 0 | [9] -0.149 | [10] 0.091 | [11] 0.006

GCC1 (UniProt Q96CN9)
inactive: [6] -0.038 | [9] 0.184

FOXJ3 (UniProt Q9UPW0)
inactive: [2] -0.156 | [3] 0.051 | [4] 0.038 | [7] -0.009 | [8] 0.096 | [9] 0.009 | [10] -0.047 | [11] -0.016

FOXJ2 (UniProt Q9P0K8)
inactive: [4] -0.036

GAGE1 (UniProt Q13065)
inactive: [3] -0.234 | [7] 0.263 | [8] 0.035 | [10] 0.032 | [11] -0.082

FOXRED2 (UniProt Q8IWF2)
inactive: [2] 0.062 | [3] -0.045 | [4] 0.029 | [7] 0.011 | [8] 0.214 | [9] -0.009 | [10] -0.105 | [11] 0.022

GEMIN7 (UniProt Q9H840)
inactive: [3] 0.041 | [6] -0.019 | [8] 0.145 | [9] -0.064

GDF15 (UniProt Q99988)
inactive: [2] 0.063 | [3] 0.353 | [4] 0.139 | [7] 0.087 | [8] -0.053 | [10] -0.407 | [11] -0.064

FRMPD3 (UniProt Q5JV73)
inactive: [4] -0.302 | [7] 0.02 | [9] -0.331 | [10] 0.036 | [11] 0.025

GDI2 (UniProt Q5SX86)
inactive: [9] 0.045

GALNT3 (UniProt Q14435)
inactive: [6] -0.03
